Measured values reported in PubChem BioAssay AID1347076 (National Center for Advancing Translational Sciences (NCATS), 2019).
The campaign covered roughly 400,000 compounds. About 13,000 (3.2%) were called active. Inconclusive results, whose numbers are uncertain, are shown with a selection of clear calls. The call rests on the fitted dose curve; in most records, active means well fitted cell-killing curve with a large enough effect; inconclusive means small, poorly fitted or top-dose-only effect, or effect the other way; inactive means flat fitted curve, though single readings scatter. Where the call is inconclusive, the potency comes from a doubtful curve fit.

experiment: qHTS assay for MDR1-selective chemotherapeutics: Primary screen using the drug-selected MDR subline cells KB-V1; settings: KB-V1 MDR cells viability, CellTiter-Glo, 72 h; series mostly up to 46.1 µM; further: nearly all actives have a fitted effect of over 60% in size
Summary of the method: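 Cytotoxicity via CellTiter-Glo luminescence after 72 h compound exposure at 37 degrees C. Cells: drug-selected KB-V1 line, DMEM phenol-red free plus 10% FBS. Compounds tested at multiple concentrations; normalized data fitted to concentration-effect curves.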
Potency means the concentration at half of the fitted maximal effect.

SMILES | Potency
CCOc1ccccc1N1CCN(C(=O)NCc2ccc(Cl)cc2)CC1 | inconclusive: 11.6 µM [cytotoxic, partial curve]
COc1ccc(NC(=O)c2cccc3c2C(=O)c2ccc(-c4cnc(OC)nc4)cc2S3(=O)=O)cc1 | inactive
COc1ccc(CN2CCC(C(N)=O)CC2)cc1OCc1ccccc1 | inactive
Cc1ccc(C(=O)c2c(NC(=O)CSc3nnc(N)s3)sc3c2CCCC3)cc1 | inconclusive: 5.8 µM [cytotoxic, partial curve]
C=CCc1c(OC)ccc2c1c(S(=O)(=O)c1ccc(C)cc1)cn2COC | inconclusive: 4.61 µM [cytotoxic, full curve]
COc1ccc(S(=O)(=O)N(C(C)=O)c2ccc(OC(C)=O)c3ccccc23)cc1[N+](=O)[O-] | inconclusive: 23.1 µM [cytotoxic, single point]
Cc1occc1C(=O)Nc1nnc(C(F)(F)F)s1 | inactive
Cc1ccc(C)c(N2CCN(C(=O)c3ccc4nc(N5CCOCC5)sc4c3)CC2)c1 | inconclusive: 1.16 µM [cytotoxic, full curve, poor fit]
C=CCC[C@H](Cc1ccc(F)cc1)C(=O)OC[C@H](Cc1c[nH]c2ccccc12)NC(=O)[C@@H](CC=C)CC(=O)N[C@@H](CO)Cc1ccccc1 | inactive
COc1ccc(NC(=O)CSc2nc(-c3ccco3)nc3cc(=O)[nH]n23)cc1 | inconclusive: 29.1 µM [rising, single point]
Cc1ccc(C(=O)COC(=O)CNC(=O)C(c2ccccc2)c2ccccc2)cc1[N+](=O)[O-] | inactive
CCOc1ccc(Nc2cc(C)nc(-n3nc(C)cc3C)n2)cc1 | inconclusive: 0.0651 µM [cytotoxic, full curve, poor fit]
COc1ccccc1N1CCN(C(=O)c2cc3cc(C)ccc3[nH]2)CC1 | inconclusive: 7.31 µM [cytotoxic, partial curve, poor fit]
O=[N+]([O-])c1ccc(C2(O)CN(c3ccccc3)C3=[N+]2CCS3)cc1 (centres undefined) | inconclusive: 18.4 µM [cytotoxic, partial curve, poor fit]
Cc1c(/C=N/O)sc2ccccc12 | active: 20.6 µM
CCCCN(C(=O)C(C)N1C(=O)c2ccccc2C1=O)c1c(N)n(CC(C)C)c(=O)[nH]c1=O (centres undefined) | inconclusive: 23.1 µM [cytotoxic, partial curve, poor fit]
O=C(CCCN1C(=O)/C(=C\c2ccccc2)SC1=S)Nc1ccc(C(=O)O)cc1 | inconclusive: 29.1 µM [rising, single point]
Cc1cnc(CN(C)Cc2nc(Cc3cccc(C(F)(F)F)c3)no2)[nH]1 | inconclusive: 29.1 µM [cytotoxic, single point]
O=C(O)CCSc1nnc(CNc2ccc(Cl)cc2)n1Cc1ccccc1 | inactive
Cc1ccc2c(c1)[C@H]1[C@H](CO2)[C@H](c2ccccc2)[C@]2(C)C(=O)Nc3cc(Cl)ccc3C(=O)N12 | inconclusive: 25.9 µM [cytotoxic, single point]
COCCOC(=O)c1sc2nc[nH]c(=O)c2c1C | inactive
CCN(CC)CCOC(=O)c1ccc(NC(=O)CCCN2C(=O)S/C(=C/c3ccc(OC)cc3)C2=S)cc1 | inactive

SMILES | Potency
CC(=O)/C(N=Nc1ccc2c(c1)OCO2)=C(\C)O | inactive
CCCCNC(=O)COc1ccccc1[N+](=O)[O-] | inconclusive: 23.1 µM [cytotoxic, single point]
Cc1cccc(N2CCN(C(=O)c3ccc(NC(=O)CC4SC(N5CCCC5)=NC4=O)cc3)CC2)c1C (centres undefined) | inconclusive: 29.1 µM [rising, single point]
C[C@@H]1CCCCO[C@@H](CN(C)C(=O)c2ccncc2)[C@@H](C)CN([C@H](C)CO)C(=O)c2cc(NC(=O)Cc3ccccc3)ccc2O1 | inactive
O=C(N/N=C/c1ccc([N+](=O)[O-])cc1)c1cc(C2CC2)nc2ccccc12 | inactive
CC(=O)N1CCN(C(=O)c2cc(S(=O)(=O)N3CCCCC3)ccc2Cl)CC1 | inactive
COC(=O)/C(=C/c1cn(C(C)=O)c2ccccc12)[N+](=O)[O-] | inactive
N#Cc1ccc(Nc2nc(-c3ccc(O)cc3O)cs2)cc1C(F)(F)F | inconclusive: 29.1 µM [cytotoxic, single point]
C/C(=N\NC(=O)c1cccc(S(=O)(=O)N2CCCCC2)c1)c1ccc(C)o1 | inconclusive: 29.1 µM [cytotoxic, single point]
Cc1cc(NC(=O)CSCC(=O)Nc2ccccc2OC(F)F)no1 | inactive
COc1ccc(C2NC(=O)N(C)C3=C2C(=O)N(c2ccc(F)cc2)C3)cc1 (centres undefined) | inactive
CCOC(=O)C1(CCc2ccccc2)CCN(C(=O)CN2CCOC2=O)CC1 | inconclusive: 29.1 µM [rising, single point]
CCCC1=NN(c2ccc([N+](=O)[O-])cc2)C(=O)/C1=C\N(C)C | inactive
CC(=O)NC(c1cccc(F)c1)c1nc(-c2csc3ccccc23)cs1 (centres undefined) | inconclusive: 18.4 µM [cytotoxic, single point]
COc1ccc(S(=O)(=O)N2CCOCC2)cc1NC(=O)CSc1nc(C)c(C)c(C)n1 | inactive
Cc1cc(NC(=O)CSc2nnc(C3COc4ccccc4O3)n2C)no1 (centres undefined) | inactive
CC1CC(C)CN(C(=O)COC(=O)c2ccc3ccccc3n2)C1 (centres undefined) | inactive
COc1ccc(NC(=S)N(CCc2ccc(OC)c(OC)c2)Cc2ccccn2)cc1 | inconclusive: 5.17 µM [cytotoxic, full curve]
CCOC(=O)c1nn(-c2sc(C(=O)OC)c(C)c2C(=O)OC)cc1O | inconclusive: 18.4 µM [cytotoxic, partial curve]
Cc1cccc(NC(=O)c2sc3nc(-c4ccccc4)cn3c2C)n1 | active: 20.6 µM
CN(C)CCCn1c(SCc2ccc(Cl)cc2)nnc1-c1ccncc1 | inconclusive: 29.1 µM [cytotoxic, partial curve, poor fit]
Cc1nn(Cc2ccccc2Cl)c2sc(C(=O)Nc3ccccc3N3CCOCC3)cc12 | inconclusive: 16.4 µM [cytotoxic, partial curve, poor fit]

Single values from the entries so far:
In Potency, `Cc1cc(NC(=O)CSc2nnc(C3COc4ccccc4O3)n2C)no1` (centres undefined) reads inactive
In Potency, `CCOC(=O)c1nn(-c2sc(C(=O)OC)c(C)c2C(=O)OC)cc1O` reads inconclusive: 18.4 µM [cytotoxic, partial curve]
